Values of other authors in patent US6583123B2, “Aminosugar, glycosaminoglycan, and S-adenosylmethionine composition for the treatment and repair of connective tissue” (Nutramax Laboratories, Inc., priority 1996, dated 2003).
At least one structure is not confirmed: it was looked up by name or label, or the drawing left a doubt.

Test system: inflammation

CSC[C@H]1O[C@@H](n2cnc3c(N)ncnc32)[C@H](O)[C@@H]1O [methylthioadenosine]
anti-inflammatory effect: pronounced anti-inflammatory effect
